From patent publication US20150148234A1, “HERBICIDE-RESISTANT SUNFLOWER PLANTS WITH MULTIPLE HERBICIDE RESISTANT ALLELES OF AHASL1 AND METHODS OF USE” (NIDERA S.A., priority 2013, published 2015) come the findings set out here.

For data set [1], the system named is A122T/A205V heterozygous hybrids (CLHA-Plus/IMISUN hetero). Briefly: multi-location field evaluation of crop injury (Example 9). Particulars: all locations and doses. Format: in vivo, sunflower.
The test system of data set [2] is sunflower A205V vs A205V/A122T. The experiment in a line: imazapyr whole plant greenhouse test (Example 2), genotype difference. Particulars: 14 DAT. Format: in vivo.

Consider `COCc1cnc(C2=NC(C)(C(C)C)C(=O)N2)c(C(=O)O)c1` (stereo not shown) [imazamox], for which, in data set [1], the “slope of the regression line (b), PI vs mean PI of A205V checks” value is recorded as 41.39±0.05.

As to `CC(C)C1(C)N=C(c2ncccc2C(=O)O)NC1=O` (stereo not shown) [imazapyr], the “Difference between A205V vs A205V/A122T, Phytotoxicity Index” value is reported as −0.50 in data set [2] (dose 0.5 (0.5x, 40 g ai/ha)); −0.50 in data set [2] (dose 1 (1x, 80 g ai/ha)); 1.66 in data set [2] (dose 2 (2x, 160 g ai/ha)); 4.65 in data set [2] (dose 3 (3x, 240 g ai/ha)); 6.92 in data set [2] (dose 4 (4x, 320 g ai/ha)); 7.59 in data set [2] (dose 5 (5x, 400 g ai/ha)). In addition, the “Difference between A205V vs A205V/A122T, Phytotoxicity Index” value in data set [2] (dose 6 (6x, 480 g ai/ha)) turned out to be 7.19. Further, the “Difference between A205V vs A205V/A122T, plant height” value was 0.21 in data set [2] (dose 0.5 (0.5x, 40 g ai/ha)); 0.89 in data set [2] (dose 1 (1x, 80 g ai/ha)); −24.63 in data set [2] (dose 2 (2x, 160 g ai/ha)); −46.79 in data set [2] (dose 3 (3x, 240 g ai/ha)); −62.01 in data set [2] (dose 4 (4x, 320 g ai/ha)); −48.59 in data set [2] (dose 5 (5x, 400 g ai/ha)). Besides, the “Difference between A205V vs A205V/A122T, plant height” value in data set [2] (dose 6 (6x, 480 g ai/ha)) is listed as −31.39. In addition, the “slope of the regression line (b), PI vs mean PI of A205V checks” value in data set [1] amounted to 0.26±0.07.
